The values below come from the supplement of paper PMC7666118.

The chains behind the UniProt entries cited, without tags or fusion partners. Where a name states a change or a piece, a line headed by the entry shows the natural chain unless it says otherwise.
UniProt Q9BWH6: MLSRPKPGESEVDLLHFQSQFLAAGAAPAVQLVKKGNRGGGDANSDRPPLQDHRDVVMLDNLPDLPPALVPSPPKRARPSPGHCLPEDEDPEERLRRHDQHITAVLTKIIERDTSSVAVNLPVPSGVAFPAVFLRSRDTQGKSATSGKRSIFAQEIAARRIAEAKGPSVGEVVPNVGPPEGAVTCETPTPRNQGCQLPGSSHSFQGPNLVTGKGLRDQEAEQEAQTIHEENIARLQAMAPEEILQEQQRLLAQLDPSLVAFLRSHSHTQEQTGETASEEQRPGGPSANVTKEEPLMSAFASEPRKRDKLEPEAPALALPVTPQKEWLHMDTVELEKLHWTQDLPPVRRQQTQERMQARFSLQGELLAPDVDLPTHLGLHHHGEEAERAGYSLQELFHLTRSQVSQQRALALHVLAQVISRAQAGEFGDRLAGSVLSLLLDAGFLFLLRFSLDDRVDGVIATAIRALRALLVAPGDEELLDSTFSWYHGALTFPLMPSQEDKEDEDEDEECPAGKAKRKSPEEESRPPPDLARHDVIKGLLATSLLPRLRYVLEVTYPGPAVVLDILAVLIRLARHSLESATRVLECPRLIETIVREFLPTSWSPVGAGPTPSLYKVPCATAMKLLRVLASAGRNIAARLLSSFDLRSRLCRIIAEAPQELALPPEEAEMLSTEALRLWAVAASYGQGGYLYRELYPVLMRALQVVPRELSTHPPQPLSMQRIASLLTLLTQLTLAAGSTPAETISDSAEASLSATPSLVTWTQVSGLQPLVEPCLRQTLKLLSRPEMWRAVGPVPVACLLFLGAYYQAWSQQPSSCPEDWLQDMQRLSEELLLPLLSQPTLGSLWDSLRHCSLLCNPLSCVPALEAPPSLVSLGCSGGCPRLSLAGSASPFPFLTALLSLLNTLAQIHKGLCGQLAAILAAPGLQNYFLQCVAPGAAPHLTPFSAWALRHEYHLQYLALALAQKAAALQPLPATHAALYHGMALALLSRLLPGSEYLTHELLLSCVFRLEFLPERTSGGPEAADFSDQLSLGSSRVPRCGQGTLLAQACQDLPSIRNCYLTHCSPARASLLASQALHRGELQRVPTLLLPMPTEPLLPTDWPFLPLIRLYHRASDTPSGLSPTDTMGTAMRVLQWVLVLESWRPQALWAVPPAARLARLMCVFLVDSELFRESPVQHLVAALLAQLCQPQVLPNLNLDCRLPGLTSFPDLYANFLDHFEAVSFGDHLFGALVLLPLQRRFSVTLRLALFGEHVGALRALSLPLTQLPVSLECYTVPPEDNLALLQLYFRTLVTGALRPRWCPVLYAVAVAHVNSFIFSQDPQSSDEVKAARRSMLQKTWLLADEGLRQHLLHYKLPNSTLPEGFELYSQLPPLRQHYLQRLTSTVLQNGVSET
UniProt Q9NRX5: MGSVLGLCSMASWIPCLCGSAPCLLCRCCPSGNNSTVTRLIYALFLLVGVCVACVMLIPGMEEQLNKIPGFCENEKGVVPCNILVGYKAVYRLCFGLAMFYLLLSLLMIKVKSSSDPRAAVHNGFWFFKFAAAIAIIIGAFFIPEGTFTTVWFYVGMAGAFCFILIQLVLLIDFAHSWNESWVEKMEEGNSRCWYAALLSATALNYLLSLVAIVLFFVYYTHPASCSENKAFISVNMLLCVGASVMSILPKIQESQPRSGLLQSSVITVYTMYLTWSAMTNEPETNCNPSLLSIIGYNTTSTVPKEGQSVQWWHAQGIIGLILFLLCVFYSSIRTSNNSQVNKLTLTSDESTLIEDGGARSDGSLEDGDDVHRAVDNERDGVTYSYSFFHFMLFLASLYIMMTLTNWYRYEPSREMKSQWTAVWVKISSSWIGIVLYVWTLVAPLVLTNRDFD
UniProt Q9BQE4, whole entry: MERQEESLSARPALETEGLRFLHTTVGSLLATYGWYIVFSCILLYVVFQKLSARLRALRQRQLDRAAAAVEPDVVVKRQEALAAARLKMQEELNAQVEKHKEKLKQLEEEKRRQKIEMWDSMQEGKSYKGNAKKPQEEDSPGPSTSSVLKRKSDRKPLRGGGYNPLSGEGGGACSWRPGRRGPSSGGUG
UniProt P49247: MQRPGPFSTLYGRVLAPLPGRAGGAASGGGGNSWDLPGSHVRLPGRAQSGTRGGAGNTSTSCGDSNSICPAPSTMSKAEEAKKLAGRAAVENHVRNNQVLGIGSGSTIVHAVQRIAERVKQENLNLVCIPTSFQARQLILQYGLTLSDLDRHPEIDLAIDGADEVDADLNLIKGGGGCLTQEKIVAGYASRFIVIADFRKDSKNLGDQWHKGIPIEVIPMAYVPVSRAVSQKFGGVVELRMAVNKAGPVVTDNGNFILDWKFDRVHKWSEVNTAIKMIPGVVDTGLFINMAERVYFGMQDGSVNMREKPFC
UniProt Q8N122, whole entry: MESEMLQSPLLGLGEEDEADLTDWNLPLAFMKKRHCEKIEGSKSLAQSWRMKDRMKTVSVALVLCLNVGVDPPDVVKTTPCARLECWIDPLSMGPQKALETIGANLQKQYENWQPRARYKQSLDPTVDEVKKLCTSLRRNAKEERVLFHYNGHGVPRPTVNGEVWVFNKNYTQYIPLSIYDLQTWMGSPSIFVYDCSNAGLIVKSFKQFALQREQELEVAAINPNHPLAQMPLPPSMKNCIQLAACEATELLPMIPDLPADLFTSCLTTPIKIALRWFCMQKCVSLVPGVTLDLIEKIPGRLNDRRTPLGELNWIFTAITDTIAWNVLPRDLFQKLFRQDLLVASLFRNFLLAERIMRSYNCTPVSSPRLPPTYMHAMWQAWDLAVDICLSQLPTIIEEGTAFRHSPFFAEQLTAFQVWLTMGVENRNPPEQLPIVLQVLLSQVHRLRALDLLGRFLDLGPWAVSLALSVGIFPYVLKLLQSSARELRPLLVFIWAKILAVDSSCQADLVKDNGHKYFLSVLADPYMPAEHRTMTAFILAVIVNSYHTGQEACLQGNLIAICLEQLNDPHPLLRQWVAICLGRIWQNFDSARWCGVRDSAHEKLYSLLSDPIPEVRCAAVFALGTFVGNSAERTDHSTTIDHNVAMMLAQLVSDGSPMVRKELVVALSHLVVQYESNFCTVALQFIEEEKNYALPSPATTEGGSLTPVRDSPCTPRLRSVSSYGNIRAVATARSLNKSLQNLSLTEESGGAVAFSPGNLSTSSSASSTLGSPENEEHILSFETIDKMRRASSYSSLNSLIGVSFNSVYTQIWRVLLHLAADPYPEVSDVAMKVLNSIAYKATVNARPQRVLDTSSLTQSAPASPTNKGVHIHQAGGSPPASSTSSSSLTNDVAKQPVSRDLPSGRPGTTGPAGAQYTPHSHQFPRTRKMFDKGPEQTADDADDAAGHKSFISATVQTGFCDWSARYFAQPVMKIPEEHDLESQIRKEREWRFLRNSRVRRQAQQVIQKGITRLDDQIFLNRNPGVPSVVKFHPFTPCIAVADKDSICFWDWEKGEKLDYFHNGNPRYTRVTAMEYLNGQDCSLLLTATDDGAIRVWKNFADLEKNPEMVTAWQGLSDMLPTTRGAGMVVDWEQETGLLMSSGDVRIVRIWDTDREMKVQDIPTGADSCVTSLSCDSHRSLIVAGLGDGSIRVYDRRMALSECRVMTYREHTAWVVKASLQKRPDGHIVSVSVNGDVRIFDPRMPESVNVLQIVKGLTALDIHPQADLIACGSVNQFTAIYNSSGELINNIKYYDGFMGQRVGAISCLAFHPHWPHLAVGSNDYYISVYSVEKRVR
UniProt O00442: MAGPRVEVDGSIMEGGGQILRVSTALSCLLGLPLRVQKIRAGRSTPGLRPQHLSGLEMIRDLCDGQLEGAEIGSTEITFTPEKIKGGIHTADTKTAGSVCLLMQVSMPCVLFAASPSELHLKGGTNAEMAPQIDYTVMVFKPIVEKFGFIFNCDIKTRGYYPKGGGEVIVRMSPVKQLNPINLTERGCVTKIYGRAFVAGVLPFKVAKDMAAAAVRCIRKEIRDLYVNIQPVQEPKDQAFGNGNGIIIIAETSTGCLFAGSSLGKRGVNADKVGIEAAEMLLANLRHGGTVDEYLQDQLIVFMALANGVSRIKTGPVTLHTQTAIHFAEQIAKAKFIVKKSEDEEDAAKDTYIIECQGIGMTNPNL
UniProt Q9UBV2: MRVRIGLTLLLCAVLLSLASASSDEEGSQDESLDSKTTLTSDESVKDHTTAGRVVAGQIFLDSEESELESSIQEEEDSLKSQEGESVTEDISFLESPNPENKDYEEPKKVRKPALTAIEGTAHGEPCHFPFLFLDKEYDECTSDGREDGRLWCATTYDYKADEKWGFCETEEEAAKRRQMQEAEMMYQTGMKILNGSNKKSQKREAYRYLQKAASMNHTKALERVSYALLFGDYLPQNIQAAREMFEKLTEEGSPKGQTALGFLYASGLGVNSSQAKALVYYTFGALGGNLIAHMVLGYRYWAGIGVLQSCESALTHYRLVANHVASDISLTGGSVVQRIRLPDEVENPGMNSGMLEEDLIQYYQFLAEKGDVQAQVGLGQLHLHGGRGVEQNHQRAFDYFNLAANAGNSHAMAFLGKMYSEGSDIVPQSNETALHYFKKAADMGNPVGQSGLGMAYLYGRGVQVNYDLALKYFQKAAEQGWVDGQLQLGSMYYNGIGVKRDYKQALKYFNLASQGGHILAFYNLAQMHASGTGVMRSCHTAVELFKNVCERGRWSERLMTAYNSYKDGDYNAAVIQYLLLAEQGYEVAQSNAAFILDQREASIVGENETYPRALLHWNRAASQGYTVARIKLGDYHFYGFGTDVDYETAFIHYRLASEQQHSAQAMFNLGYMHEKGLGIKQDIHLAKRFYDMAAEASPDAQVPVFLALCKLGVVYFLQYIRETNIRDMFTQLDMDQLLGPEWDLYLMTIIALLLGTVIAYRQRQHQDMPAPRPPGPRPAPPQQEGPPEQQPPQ
UniProt O00560: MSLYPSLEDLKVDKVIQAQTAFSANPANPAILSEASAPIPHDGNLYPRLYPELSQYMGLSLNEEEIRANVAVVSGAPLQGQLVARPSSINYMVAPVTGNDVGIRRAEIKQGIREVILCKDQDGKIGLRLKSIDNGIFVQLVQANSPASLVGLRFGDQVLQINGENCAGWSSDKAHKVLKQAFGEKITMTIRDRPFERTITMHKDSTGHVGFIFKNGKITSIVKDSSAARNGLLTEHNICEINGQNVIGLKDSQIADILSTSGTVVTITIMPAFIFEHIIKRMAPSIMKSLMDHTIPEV
UniProt Q7L099: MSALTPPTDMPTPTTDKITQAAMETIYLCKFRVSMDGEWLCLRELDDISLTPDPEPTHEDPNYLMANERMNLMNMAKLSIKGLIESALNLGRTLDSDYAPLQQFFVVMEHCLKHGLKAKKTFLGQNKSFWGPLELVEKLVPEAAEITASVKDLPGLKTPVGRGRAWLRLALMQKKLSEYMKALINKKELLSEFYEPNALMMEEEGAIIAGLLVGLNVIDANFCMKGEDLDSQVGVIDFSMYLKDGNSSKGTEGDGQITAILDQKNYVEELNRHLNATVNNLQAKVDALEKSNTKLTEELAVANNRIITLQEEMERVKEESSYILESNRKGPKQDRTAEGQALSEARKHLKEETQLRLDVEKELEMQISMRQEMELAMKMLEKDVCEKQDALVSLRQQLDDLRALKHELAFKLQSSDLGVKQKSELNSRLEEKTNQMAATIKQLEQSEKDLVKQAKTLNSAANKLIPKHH
UniProt Q99611, whole entry: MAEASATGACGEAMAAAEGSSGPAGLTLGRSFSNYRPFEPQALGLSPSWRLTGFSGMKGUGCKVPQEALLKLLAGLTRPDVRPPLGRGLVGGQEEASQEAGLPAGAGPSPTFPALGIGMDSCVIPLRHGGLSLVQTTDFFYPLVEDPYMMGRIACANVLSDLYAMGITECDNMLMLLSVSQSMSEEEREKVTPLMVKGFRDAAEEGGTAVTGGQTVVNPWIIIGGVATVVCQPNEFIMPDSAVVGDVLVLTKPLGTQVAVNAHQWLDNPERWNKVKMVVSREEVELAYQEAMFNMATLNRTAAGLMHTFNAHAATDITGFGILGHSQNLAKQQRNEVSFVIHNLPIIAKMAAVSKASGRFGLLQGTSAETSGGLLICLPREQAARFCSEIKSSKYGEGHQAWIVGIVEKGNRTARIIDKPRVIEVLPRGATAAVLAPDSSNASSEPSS
UniProt Q96I15: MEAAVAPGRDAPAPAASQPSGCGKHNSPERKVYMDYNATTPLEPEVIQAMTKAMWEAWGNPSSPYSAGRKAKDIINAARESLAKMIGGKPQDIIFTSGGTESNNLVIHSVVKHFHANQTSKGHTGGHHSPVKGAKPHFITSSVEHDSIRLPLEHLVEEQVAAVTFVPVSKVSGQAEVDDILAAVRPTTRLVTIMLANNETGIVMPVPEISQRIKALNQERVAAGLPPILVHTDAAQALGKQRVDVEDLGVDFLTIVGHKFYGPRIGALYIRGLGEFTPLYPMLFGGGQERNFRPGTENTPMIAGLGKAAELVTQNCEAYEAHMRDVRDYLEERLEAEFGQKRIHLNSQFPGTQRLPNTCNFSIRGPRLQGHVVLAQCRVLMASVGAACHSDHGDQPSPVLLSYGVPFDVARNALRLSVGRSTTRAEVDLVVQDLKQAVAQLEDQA

Some of the results follow.

Compound in the assay: COc1ccc(Cn2ccc3cc(C)c(C(=O)NO)cc32)cc1
In words: dose-dependent thermal stabilisation call (2D-TPP, DLPTP, 10% FDR) (binary (1 = stabilised)); higher = stabilised by the compound. The note with it: system: HL-60 intact cells; concentration range 0.04-10 µM. As to the method:
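2D thermal proteome profiling in intact HL-60 cells treated with BRD-3811 (0, 0.04, 0.29, 2, 10 uM) for 90 min at 37 C, then heated 3 min at one of 12 temperatures (42-63.9 C). Soluble protein was quantified by TMT10 MS. The value is the DLPTP call of the paper: dose-dependent thermal stabilisation over all temperatures at 10% FDR (F-test of a dose-response against a flat model); one experiment, one call per tested protein.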
For the target RPL8 (UniProt P62917), the “dose-dependent thermal stabilisation call” value was inactive: 0. For the target RSU1 (UniProt Q15404), the “dose-dependent thermal stabilisation call” value is inactive: 0.

For RPAP1 (UniProt Q9BWH6), the “dose-dependent thermal stabilisation call” value is inactive: 0. The result for RSF1 (UniProt Q96T23) reads inactive: 0; that for RNF25 (UniProt Q96BH1), inactive: 0. With RPS6KC1 (UniProt Q96S38) the figure was inactive: 0.

Consider RPS6KA1 (UniProt Q15418), for which the “dose-dependent thermal stabilisation call” value was inactive: 0. With SERINC1 (UniProt Q9NRX5) the figure was inactive: 0; with RPL38 (UniProt P63173), inactive: 0. As to RPS17 (UniProt P08708), the “dose-dependent thermal stabilisation call” value is inactive: 0.

For SATB2 (UniProt Q9UPW6), the “dose-dependent thermal stabilisation call” value was inactive: 0. As for RSBN1L (UniProt Q6PCB5), the “dose-dependent thermal stabilisation call” value was inactive: 0. With SELS (UniProt Q9BQE4) the figure was inactive: 0; with RNMT (UniProt O43148), inactive: 0. Take SCYL1 (UniProt Q96KG9): the “dose-dependent thermal stabilisation call” value is inactive: 0. With RPIA (UniProt P49247) the figure was inactive: 0. With RPLP0-LIKE the figure was inactive: 0; with RTF1 (UniProt Q92541), inactive: 0; with SCYL2 (UniProt Q6P3W7), inactive: 0.

Take RPL34 (UniProt P49207): the “dose-dependent thermal stabilisation call” value is inactive: 0. SEMA4A (UniProt Q9H3S1): the “dose-dependent thermal stabilisation call” value is inactive: 0. The result for RPTOR (UniProt Q8N122) reads inactive: 0. With RTCD1 (UniProt O00442) the figure was inactive: 0; with RPS6KA3 (UniProt P51812), inactive: 0; with RPP30 (UniProt P78346), inactive: 0. Take SEL1L (UniProt Q9UBV2): the “dose-dependent thermal stabilisation call” value was inactive: 0.

Regarding SEC11A (UniProt P67812), the “dose-dependent thermal stabilisation call” value was inactive: 0. The result for SDCBP (UniProt O00560) reads inactive: 0.

Turning to RUFY3 (UniProt Q7L099), the “dose-dependent thermal stabilisation call” value is inactive: 0. The result for RYBP (UniProt Q8N488) reads inactive: 0; that for SAPS1 (UniProt Q9UPN7), inactive: 0. Consider RTN4 (UniProt Q9NQC3), for which the “dose-dependent thermal stabilisation call” value was inactive: 0. The result for RPL15 (UniProt P61313) reads inactive: 0; that for RPUSD2 (UniProt Q8IZ73), inactive: 0. The result for SEPHS2 (UniProt Q99611) reads inactive: 0; that for SDSL (UniProt Q96GA7), inactive: 0; that for RPP40 (UniProt O75818), inactive: 0.

Take SCLY (UniProt Q96I15): the “dose-dependent thermal stabilisation call” value is inactive: 0. With RPS8 (UniProt P62241) the figure was inactive: 0. The result for RPL14 (UniProt P50914) reads inactive: 0.
